Measured values as given in publication PMC11782663.
No constants are given. Whether binding was seen depends on the method and setting. In cells and extracts the contact can be indirect. For some assays here: Binding can be weak; no strength is given.

Sequences of proteins named here, by UniProt entry; tags and fusion partners are left off. A change or cut given only in a name is not applied to a line headed by its entry.
UniProt Q08775: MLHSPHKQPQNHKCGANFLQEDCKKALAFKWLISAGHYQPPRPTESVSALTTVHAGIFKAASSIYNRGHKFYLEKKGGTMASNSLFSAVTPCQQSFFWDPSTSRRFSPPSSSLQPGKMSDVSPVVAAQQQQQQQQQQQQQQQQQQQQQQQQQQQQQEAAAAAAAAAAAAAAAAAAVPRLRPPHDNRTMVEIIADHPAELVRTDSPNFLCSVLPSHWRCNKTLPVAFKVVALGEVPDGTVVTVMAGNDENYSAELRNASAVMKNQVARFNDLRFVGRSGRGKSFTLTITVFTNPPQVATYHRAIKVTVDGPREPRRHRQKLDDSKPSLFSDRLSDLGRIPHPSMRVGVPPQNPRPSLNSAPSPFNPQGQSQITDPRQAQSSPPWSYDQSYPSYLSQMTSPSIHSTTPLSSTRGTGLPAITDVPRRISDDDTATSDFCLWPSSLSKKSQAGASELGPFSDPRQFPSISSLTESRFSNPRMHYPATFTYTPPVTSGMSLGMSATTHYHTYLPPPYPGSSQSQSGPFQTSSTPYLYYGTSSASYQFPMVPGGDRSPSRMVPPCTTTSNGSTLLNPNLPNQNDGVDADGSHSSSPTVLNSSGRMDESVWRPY

B1: Thoc6, endogenous (protein, UniProt Q5U4D9 1-341)
chain: MEHAAPLAVPLGQAEVFQALQRLHMTIFSQSVSPCGKFLAAGNNYGQIAIFSLSAALSSEAKEESKKPVVVFHAHDGPVYSMVSTDRHLLSAGDGEVKGWLWAEILKKGCKELWRRQPPYRTSLEVPEINALLLVPKENSLILAGGDCQLHSMDLETGAFTRALRGHTDYIHCLALRERSPEVLSGGEDGAVRLWDLRIAKEVQTIEVYKHEECSRPHNGRWIGCLATDSDWMVCGGGPALTLWHLRSSTPTTVFPIRAPQKHVTFYQDLILSAGQGCCVNHWQLSGELKAQVPGSSPGLLSLSLNQQPAAPECKVLTASGNSCRVDVFTNLGYRAFSLSF
B2: Thoc6 expressed from a transfected plasmid (protein, UniProt Q5U4D9 1-341)
chain: B1 chain

Key:
[1] = molecular target: Runt-related transcription factor 2 (RUNX2), endogenous (mouse (endogenous in BMSCs)) (UniProt Q08775); test: co-IP; endogenous proteins; lysate of BMSCs after 4 days of osteoblastic differentiation (text: C3H10T1/2 cells); anti-Thoc6 or anti-RUNX2 antibody, IgG as control, on protein A/G magnetic beads, 4 °C overnight; lysis buffer 20 mmol/L Tris-HCl pH 7.4, 150 mmol/L NaCl, 1 mmol/L EDTA, 1% Triton-X100; western blot
[2] = molecular target: FLAG-tagged RUNX2 N-terminal deletion mutant ΔNLS; test: co-IP; C3H10T1/2 cells co-transfected with Thoc6 and WT FLAG-Runx2 or FLAG-tagged N-terminal deletion mutants, 48 h; whole cell extracts immunoprecipitated with FLAG or Thoc6 antibody, western blot with Thoc6 or FLAG antibody
[3] = molecular target: FLAG-tagged RUNX2 N-terminal deletion mutant ΔRUNT; test: as above
[4] = molecular target: FLAG-tagged RUNX2 N-terminal deletion mutant ΔAD; test: as above
[5] = molecular target: wild-type (WT) FLAG-tagged RUNX2; test: as above

Binder | binding [1] | binding [2] | binding [3] | binding [4] | binding [5]
B1 | binds |  |  |  | 
B2 |  | no binding | no binding | binds | binds
